Assay results published in the supplement of paper PMC6078165.
Values are relative to the signal before dosing, not to a vehicle control; the signal also falls without drug.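 Fibroblast labels name human fibroblasts: mostly primary ones from tissues such as uterus (C12385, HUF), lung (H6013), bone (Hs27A), adrenal (HADF) and skin (WS1), plus mammary HMF and breast cancer-associated Hs343T. The cancer cells are basal-like or mesenchymal-like triple-negative breast cancer lines. The paper calls a changed response a hit when it shifts by more than 3x the replicate standard deviation. The tissue of the other fibroblasts is not given here.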

System: MDAMB436
Test: relative JC-1 red fluorescence (viability) vs pre-drug, coculture with fibroblast (fraction); higher = more viable cancer cells
Conditions: 100 µM
Procedure: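 JC-1 labelled TNBC cells cocultured 1:1 (1,500 cells each) with CellTrace Violet stained primary or stromal fibroblasts in 384-well plates in FluoroBrite medium, treated with one of 42 anticancer drugs at 0.1, 1, 10 or 100 uM. JC-1 red fluorescence (mitochondrial integrity in cancer cells only) was read by plate reader every 8 h for 72 h. Values are normalised to each well's pre-drug value. The stock of one drug was tenfold lower, so its dose labels may be too high.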

CO[C@H]1C[C@@H]2CC[C@@H](C)[C@@](O)(O2)C(=O)C(=O)N2CCCC[C@H]2C(=O)O[C@H]([C@H](C)C[C@@H]2CC[C@@H](O)[C@H](OC)C2)CC(=O)[C@H](C)/C=C(\C)[C@@H](O)[C@@H](OC)C(=O)[C@H](C)C[C@H](C)/C=C/C=C/C=C/1C [Rapamycin]
relative JC-1 red fluorescence
Conditions | 40 h | 48 h | 56 h | 64 h | 72 h
coculture fibroblast: C12385 | – | 0.46 | 0.39 | 0.406 | 0.444
coculture fibroblast: H6013 | – | 0.734 | 0.629 | 0.632 | 0.662
coculture fibroblast: H6019 | – | 0.652 | 0.544 | 0.444 | 0.402
coculture fibroblast: H6076 | – | 0.816 | 0.74 | 0.674 | 0.725
coculture fibroblast: H6231 | – | 0.787 | 0.804 | 0.749 | 0.904
coculture fibroblast: HADF | – | 0.828 | 0.727 | 0.601 | 0.533
coculture fibroblast: HCFa | – | 0.734 | 0.5659 | 0.545 | 0.55
coculture fibroblast: HCPF | – | 0.893 | 0.809 | 0.799 | 0.754
coculture fibroblast: HHSteC | 0.75 | 0.723 | 0.676 | 0.739 | 0.761
coculture fibroblast: HMF | 0.873 | 0.822 | 0.71 | 0.825 | 0.84
coculture fibroblast: HPFa | 0.9069 | 0.841 | 0.853 | 0.828 | 0.734
coculture fibroblast: HUF | 0.625 | 0.474 | 0.362 | 0.305 | 0.331
coculture fibroblast: Hs5 | 0.894 | 0.768 | 0.786 | 0.724 | 0.69
coculture fibroblast: Hs27A | 0.85 | 0.902 | 0.928 | 0.723 | 0.697
coculture fibroblast: Hs343T | 0.87 | 0.832 | 0.825 | 0.687 | 0.628
coculture fibroblast: WS1 | 0.62 | 0.495 | 0.392 | 0.377 | 0.409
